Data on one substance can be found in paper PMC8661717.

In assay [1] the target is His6-MBP-tagged MERS nsp1, full length (MERS) (UniProt K9N7C7). The experiment in a line: pull-down; both purified.
Assay [2] concerns the target His6-MBP-tagged 229E nsp1, full length (human-infective coronavirus strain 229E) (UniProt P0C6X1). The experiment in a line: pull-down; both purified.

Results are given in words; binding and its absence hold for the method and conditions named. Some results given as binding are weak or reduced against the parent protein; the word gives no strength.

“Truncated human primosome (Pol α 334-1462; B subunit 149-598; PriS 1-420; PriL 1-509) (from UniProt P09884 334-1462; Q14181 149-598; P49642 1-420; P49643 1-509) (complex)”: the figures for the binding entry in assay [1] and in assay [2] were “binds” and “no binding”, respectively.
